Measurements reported in PubChem BioAssay AID1224830 (NIAID, 2016).
The deposit covers about 18,000 reagents; below is a random part of them. In the full data, about 2,900 (16%) are marked active. 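Calls are made per well; low scores hint the gene aids the LPS response, high scores that it dampens it.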 Entries without a mark were called inactive. Repeated entries: four replicate wells of each siRNA pool.

Purpose: 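Regulators of TLR4 signalling towards TNF-alpha in macrophage-like cells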 (primary screen)
System: human THP-1 monocytic leukaemia cells, TNF dual-luciferase reporter clone, PMA-differentiated to macrophage-like cells
Reagents: siRNA pool against human genes, 50 nM
Time to read-out: LPS for 4 h, given about 3 days after siRNA transfection
Treatment: bacterial LPS (TLR4 ligand), 10 ng/ml
Read-out: 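TNF firefly reporter luminescence divided by renilla, normalised to the plate median, then turned into a robust z-score for each replicate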
Reading the numbers: TNF reporter robust z-score: higher = stronger TNF reporter response to LPS
Hit rule: 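a well is active when its z-score exceeds 2.8 or falls below -1.5; control wells carry no call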

| target | PubChem SID | TNF reporter robust z-score |
| --- | --- | --- |
| POLG2 | SID315454704 | 0.25 |
| POLG2 | SID315454704 | 0.56 |
| POLG2 | SID315454704 | 0.44 |
| POLG2 | SID315454704 | -0.25 |
| SMIM3 | SID315460643 | -0.45 |
| SMIM3 | SID315460643 | -0.36 |
| SMIM3 | SID315460643 | 0.22 |
| SMIM3 | SID315460643 | -0.43 |
| MRAS | SID315454790 | -1.25 |
| MRAS | SID315454790 | -0.93 |
| MRAS | SID315454790 | -1.05 |
| MRAS | SID315454790 | -1.3 |
| RXFP2 | SID315461538 | -0.69 |
| RXFP2 | SID315461538 | -0.37 |
| RXFP2 | SID315461538 | -0.75 |
| RXFP2 | SID315461538 | -0.47 |
| CNTN2 | SID315451761 | -1.25 |
| CNTN2 | SID315451761 | -1.51 (active) |
| CNTN2 | SID315451761 | -1.22 |
| CNTN2 | SID315451761 | -1.32 |
| CFAP141 | SID315464515 | -1.43 |
| CFAP141 | SID315464515 | -1.31 |
| CFAP141 | SID315464515 | -1.02 |
| CFAP141 | SID315464515 | -1.09 |
| MED19 | SID315463179 | -1.16 |
| MED19 | SID315463179 | -0.82 |
| MED19 | SID315463179 | -0.83 |
| MED19 | SID315463179 | -0.93 |
| UBXN10 | SID315461770 | -1.8 (active) |
| UBXN10 | SID315461770 | -1.49 |
| UBXN10 | SID315461770 | -1.68 (active) |
| UBXN10 | SID315461770 | -1.77 (active) |
| GPC1 | SID315448977 | -0.47 |
| GPC1 | SID315448977 | -0.24 |
| GPC1 | SID315448977 | -0.75 |
| GPC1 | SID315448977 | -0.03 |
| MIGA1 | SID315464350 | -0.3 |
| MIGA1 | SID315464350 | -0.12 |
| MIGA1 | SID315464350 | -0.15 |
| VPREB3 | SID315456181 | 2.73 |
| VPREB3 | SID315456181 | 4.27 (active) |
| VPREB3 | SID315456181 | 2.21 |
| VPREB3 | SID315456181 | 4.41 (active) |
| YDJC | SID315462441 | -0.17 |
| YDJC | SID315462441 | 0.65 |
| YDJC | SID315462441 | -0.36 |
| YDJC | SID315462441 | 0.57 |
| WFIKKN1 | SID315461413 | 0.88 |
| WFIKKN1 | SID315461413 | 0.06 |
| WFIKKN1 | SID315461413 | 0.8 |
| WFIKKN1 | SID315461413 | 0.69 |
| MROH2B | SID315461947 | -0.02 |
| MROH2B | SID315461947 | -0.25 |
| MROH2B | SID315461947 | -0.15 |
| MROH2B | SID315461947 | 0.89 |
| SLC60A2 | SID315460947 | -0.55 |
| SLC60A2 | SID315460947 | -0.45 |
| SLC60A2 | SID315460947 | -0.48 |
| SLC60A2 | SID315460947 | 0.36 |
| PSG4 | SID315450876 | 1.88 |
| PSG4 | SID315450876 | 0.84 |
| PSG4 | SID315450876 | -0.33 |
| PSG4 | SID315450876 | -0.13 |
| ESAM | SID315460872 | 2.49 |
| ESAM | SID315460872 | 2.9 (active) |
| ESAM | SID315460872 | 0.43 |
| ESAM | SID315460872 | 1.76 |
| SLX1B | SID315459154 | -0.84 |
| SLX1B | SID315459154 | 0.67 |
| SLX1B | SID315459154 | -0.24 |
| SLX1B | SID315459154 | -0.16 |
| FARSA | SID315448636 | 1.6 |
| FARSA | SID315448636 | 0.57 |
| FARSA | SID315448636 | 0.68 |
| FARSA | SID315448636 | 1.33 |
| WHAMM | SID315461585 | 0.06 |
| WHAMM | SID315461585 | 0.87 |
| WHAMM | SID315461585 | 0.68 |
| WHAMM | SID315461585 | 0.93 |
| COL16A1 | SID315448034 | -0.94 |
| COL16A1 | SID315448034 | -1.83 (active) |
| COL16A1 | SID315448034 | -0.43 |
| COL16A1 | SID315448034 | 0.98 |
| MED13 | SID315453717 | 2.2 |
| MED13 | SID315453717 | 0.81 |
| MED13 | SID315453717 | 0.7 |
| MED13 | SID315453717 | 1.31 |
| STX16 | SID315452738 | -0.1 |
| STX16 | SID315452738 | -0.77 |
| STX16 | SID315452738 | -0.03 |
| STX16 | SID315452738 | -0.53 |
| FCF1 | SID315456448 | 1.37 |
| FCF1 | SID315456448 | 0.73 |
| FCF1 | SID315456448 | 0.48 |
| FCF1 | SID315456448 | 0.4 |
| GMPPA | SID315456221 | 0.41 |
| GMPPA | SID315456221 | 1.09 |
| GMPPA | SID315456221 | 1.85 |
| GMPPA | SID315456221 | 0.06 |
| SLITRK2 | SID315460427 | -0.06 |
| SLITRK2 | SID315460427 | 1.33 |
| SLITRK2 | SID315460427 | 0.49 |
| SLITRK2 | SID315460427 | 0.78 |
| NHLRC1 | SID315464400 | -0.03 |
| NHLRC1 | SID315464400 | 3.75 (active) |
| NHLRC1 | SID315464400 | -0.21 |
| NHLRC1 | SID315464400 | 0.69 |
| PCDH7 | SID315450446 | -0.76 |
| PCDH7 | SID315450446 | -0.45 |
| PCDH7 | SID315450446 | 0.52 |
| PCDH7 | SID315450446 | -0.18 |

Ordered by “TNF reporter robust z-score” (descending): 14 of the entries above
| target | PubChem SID | TNF reporter robust z-score |
| --- | --- | --- |
| MED19 | SID315463179 | -0.82 |
| MED19 | SID315463179 | -0.83 |
| MED19 | SID315463179 | -0.93 |
| CFAP141 | SID315464515 | -1.02 |
| CFAP141 | SID315464515 | -1.09 |
| MED19 | SID315463179 | -1.16 |
| CNTN2 | SID315451761 | -1.22 |
| CNTN2 | SID315451761 | -1.25 |
| CFAP141 | SID315464515 | -1.31 |
| CNTN2 | SID315451761 | -1.32 |
| CFAP141 | SID315464515 | -1.43 |
| UBXN10 | SID315461770 | -1.49 |
| CNTN2 | SID315451761 | -1.51 (active) |
| UBXN10 | SID315461770 | -1.8 (active) |
